# From US20170008927A1 (The University of Tokyo, priority 2014, published 2017)
# Experiment: general procedure: Fmoc solid-phase peptide synthesis; Fmoc-L-Lys(Mtt)-Alko-PEG resin
# Settings: whole synthesis, scale 0.10 mmol
substance,measurement,value
H-8DMAP-OH,isolated mass,192 mg
